No constants are given. Whether binding was seen depends on the method and setting. In cells and extracts the contact can be indirect. Some results given as binding are weak or reduced against the parent protein; the word gives no strength. For part of these data: Tags and fused reporters may be left off the sequences shown.
T1: HA-tagged hnRNP R-FL (mouse) (UniProt Q8VHM5)
T1 sequence: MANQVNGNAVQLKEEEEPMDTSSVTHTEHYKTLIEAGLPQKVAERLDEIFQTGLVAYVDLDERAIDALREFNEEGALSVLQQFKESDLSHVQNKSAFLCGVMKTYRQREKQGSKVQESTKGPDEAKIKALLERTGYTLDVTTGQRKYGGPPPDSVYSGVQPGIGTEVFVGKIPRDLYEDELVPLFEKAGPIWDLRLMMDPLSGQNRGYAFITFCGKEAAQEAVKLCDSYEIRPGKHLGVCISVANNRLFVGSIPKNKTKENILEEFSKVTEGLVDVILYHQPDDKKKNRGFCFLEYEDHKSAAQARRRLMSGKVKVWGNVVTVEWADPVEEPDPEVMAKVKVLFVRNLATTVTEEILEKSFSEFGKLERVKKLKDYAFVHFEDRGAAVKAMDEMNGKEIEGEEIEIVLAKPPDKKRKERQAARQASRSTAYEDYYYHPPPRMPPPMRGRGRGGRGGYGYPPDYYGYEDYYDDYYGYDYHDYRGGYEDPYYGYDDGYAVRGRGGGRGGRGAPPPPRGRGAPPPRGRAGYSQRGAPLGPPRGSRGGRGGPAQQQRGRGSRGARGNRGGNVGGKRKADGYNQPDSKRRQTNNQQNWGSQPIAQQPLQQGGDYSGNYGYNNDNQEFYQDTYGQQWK

Protein sequences, listed by entry. Tags and fused reporters are not part of them.
UniProt P62960: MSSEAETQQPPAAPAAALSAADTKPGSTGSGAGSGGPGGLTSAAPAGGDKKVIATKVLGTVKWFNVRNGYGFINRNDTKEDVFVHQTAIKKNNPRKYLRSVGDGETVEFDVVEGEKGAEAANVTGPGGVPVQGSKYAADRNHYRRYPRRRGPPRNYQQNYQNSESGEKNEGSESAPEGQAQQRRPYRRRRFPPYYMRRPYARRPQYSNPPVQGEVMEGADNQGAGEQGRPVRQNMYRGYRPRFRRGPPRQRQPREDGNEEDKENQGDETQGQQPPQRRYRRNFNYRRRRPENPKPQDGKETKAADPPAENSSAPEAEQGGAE
UniProt P67809: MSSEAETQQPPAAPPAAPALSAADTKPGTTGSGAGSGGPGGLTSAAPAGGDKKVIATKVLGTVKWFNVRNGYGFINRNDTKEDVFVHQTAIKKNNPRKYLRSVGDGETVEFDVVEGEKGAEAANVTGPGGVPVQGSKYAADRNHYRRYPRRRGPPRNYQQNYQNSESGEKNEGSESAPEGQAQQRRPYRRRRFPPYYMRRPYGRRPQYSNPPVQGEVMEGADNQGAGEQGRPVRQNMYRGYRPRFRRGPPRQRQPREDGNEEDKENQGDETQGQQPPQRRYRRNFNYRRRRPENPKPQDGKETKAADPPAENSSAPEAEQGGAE

B1: hnRNP R-FL (full-length hnRNP R isoform), endogenous (natural protein, mouse (endogenous in NSC-34), UniProt Q8VHM5 1-632, looked up)
chain: T1 sequence
notes: hnRNP R, mouse, full-length 632-amino acid protein encoded by transcript variant 1, translated from the AUG in exon 2; source: endogenous, NSC-34 lysate

Columns and labels:
[1] = target: T1, HA-tagged hnRNP R-FL (mouse); test: co-IP; anti-HA beads, lysates of HEK293TN cells transfected with HA-tagged hnRNP R isoforms or deletion mutants; western blot for Yb1 and HA
[2] = target: Y-box binding protein 1 (Yb1), endogenous mouse (mouse (endogenous in primary mouse motoneurons and NSC-34 cells)) (UniProt P62960); test: co-IP; Yb1 (sc-101198) or γ-H2AX (clone JBW301) immunoprecipitated on protein A or G Dynabeads from whole lysates of NSC-34 cells, 0 Gy or 9 Gy; IP lysis buffer (50 mM Tris-HCl pH 7.4, 140 mM NaCl, 1% Triton X-100) with 1 U Benzonase, overnight at 4°C; western blot
[3] = target: Y-box binding protein 1 (Yb1), endogenous mouse (mouse (endogenous in primary mouse motoneurons and NSC-34 cells)) (UniProt P62960); test: co-IP; Yb1 immunoprecipitated (sc-101198) from lysates of NSC-34 cells, 0 Gy or 9 Gy, in the absence of Benzonase; western blot for hnRNP R

Molecule	binding [1]	binding [2]	binding [3]
Y-box binding protein 1 (Yb1), endogenous in HEK293TN cells (from UniProt P67809 1-324)	binds	–	–
B1	–	binds	binds

From PMC8643683, “Loss of full-length hnRNP R isoform impairs DNA damage response in motoneurons by inhibiting Yb1 recruitment to chromatin” (Nucleic Acids Research, 2021)
